Results on 4 molecules are retold here after paper PMC3911986.

Amino acid sequences for entries named in this document (tags omitted).
UniProt O60264: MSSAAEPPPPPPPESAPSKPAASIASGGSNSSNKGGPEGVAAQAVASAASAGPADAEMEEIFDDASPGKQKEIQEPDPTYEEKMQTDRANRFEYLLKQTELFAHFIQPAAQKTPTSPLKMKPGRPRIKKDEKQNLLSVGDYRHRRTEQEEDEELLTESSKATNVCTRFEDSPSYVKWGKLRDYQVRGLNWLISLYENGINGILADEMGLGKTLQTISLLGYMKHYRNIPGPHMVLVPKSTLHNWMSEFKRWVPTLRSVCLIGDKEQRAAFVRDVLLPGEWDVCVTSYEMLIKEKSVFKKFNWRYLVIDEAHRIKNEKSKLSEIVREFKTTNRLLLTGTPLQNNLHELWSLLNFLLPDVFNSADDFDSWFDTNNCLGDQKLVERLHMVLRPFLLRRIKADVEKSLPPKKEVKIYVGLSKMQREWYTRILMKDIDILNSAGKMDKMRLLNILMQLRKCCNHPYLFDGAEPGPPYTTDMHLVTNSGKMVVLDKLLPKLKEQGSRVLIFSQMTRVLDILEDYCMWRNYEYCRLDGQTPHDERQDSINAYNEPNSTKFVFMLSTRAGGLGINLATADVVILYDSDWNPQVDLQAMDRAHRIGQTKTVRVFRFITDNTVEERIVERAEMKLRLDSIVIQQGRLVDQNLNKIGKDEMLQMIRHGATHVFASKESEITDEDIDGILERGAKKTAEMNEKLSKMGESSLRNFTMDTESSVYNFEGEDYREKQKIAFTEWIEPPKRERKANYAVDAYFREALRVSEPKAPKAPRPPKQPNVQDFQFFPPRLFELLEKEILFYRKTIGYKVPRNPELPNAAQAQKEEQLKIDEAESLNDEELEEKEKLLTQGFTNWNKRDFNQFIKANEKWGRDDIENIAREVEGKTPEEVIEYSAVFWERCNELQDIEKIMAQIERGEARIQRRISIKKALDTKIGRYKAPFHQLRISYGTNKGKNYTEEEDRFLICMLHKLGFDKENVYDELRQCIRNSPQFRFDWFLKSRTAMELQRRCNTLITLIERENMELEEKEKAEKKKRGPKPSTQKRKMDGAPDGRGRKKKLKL
UniProt Q91ZW3: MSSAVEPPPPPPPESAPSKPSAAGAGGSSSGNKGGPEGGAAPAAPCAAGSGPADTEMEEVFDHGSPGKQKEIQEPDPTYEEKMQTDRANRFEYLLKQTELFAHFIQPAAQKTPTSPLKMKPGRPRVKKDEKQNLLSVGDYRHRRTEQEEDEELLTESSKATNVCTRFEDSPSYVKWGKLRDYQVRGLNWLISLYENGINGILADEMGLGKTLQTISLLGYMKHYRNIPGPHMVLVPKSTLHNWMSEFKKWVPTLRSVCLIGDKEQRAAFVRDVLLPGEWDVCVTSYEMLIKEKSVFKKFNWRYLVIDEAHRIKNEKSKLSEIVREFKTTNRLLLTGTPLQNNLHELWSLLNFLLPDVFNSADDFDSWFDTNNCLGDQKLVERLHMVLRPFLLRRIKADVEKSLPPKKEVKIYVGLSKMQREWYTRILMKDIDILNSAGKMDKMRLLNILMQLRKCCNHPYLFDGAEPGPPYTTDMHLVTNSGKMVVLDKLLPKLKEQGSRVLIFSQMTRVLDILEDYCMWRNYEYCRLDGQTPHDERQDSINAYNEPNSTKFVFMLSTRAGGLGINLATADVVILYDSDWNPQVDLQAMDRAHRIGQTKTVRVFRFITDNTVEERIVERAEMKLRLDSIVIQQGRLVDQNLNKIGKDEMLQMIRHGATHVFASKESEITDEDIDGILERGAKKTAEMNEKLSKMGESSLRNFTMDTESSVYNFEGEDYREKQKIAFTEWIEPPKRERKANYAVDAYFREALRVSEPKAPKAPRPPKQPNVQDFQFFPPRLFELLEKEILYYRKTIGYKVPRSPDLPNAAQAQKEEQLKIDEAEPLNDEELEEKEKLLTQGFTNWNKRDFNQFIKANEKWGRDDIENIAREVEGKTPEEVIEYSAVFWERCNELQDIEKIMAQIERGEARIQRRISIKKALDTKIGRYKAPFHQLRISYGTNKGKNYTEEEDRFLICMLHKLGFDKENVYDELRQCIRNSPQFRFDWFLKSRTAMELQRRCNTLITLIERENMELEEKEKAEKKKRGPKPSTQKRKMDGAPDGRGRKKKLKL

For experiment [1], the target named is T1, Ctcf (CCCTC-binding factor), mouse (mouse (endogenous in MEL)) (UniProt Q61164).
T1 sequence: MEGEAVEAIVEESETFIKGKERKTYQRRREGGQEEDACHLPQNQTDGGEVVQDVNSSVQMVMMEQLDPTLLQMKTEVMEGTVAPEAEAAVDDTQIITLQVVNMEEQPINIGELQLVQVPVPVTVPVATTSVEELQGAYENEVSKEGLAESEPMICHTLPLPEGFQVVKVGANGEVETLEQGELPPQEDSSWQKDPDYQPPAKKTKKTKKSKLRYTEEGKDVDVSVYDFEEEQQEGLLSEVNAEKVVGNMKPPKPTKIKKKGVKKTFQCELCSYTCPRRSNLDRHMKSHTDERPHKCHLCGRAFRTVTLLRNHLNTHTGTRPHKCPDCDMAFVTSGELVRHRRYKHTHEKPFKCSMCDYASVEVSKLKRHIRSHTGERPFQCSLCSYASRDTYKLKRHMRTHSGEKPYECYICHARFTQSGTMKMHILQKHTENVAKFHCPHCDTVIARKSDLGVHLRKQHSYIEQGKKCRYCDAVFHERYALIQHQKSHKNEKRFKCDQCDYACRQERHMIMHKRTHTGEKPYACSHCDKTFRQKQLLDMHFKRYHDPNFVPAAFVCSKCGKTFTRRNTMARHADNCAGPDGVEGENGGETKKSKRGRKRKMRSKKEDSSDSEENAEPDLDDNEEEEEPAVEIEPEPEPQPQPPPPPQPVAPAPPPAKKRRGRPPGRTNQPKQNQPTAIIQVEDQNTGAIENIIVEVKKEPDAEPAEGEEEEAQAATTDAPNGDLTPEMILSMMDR
As to the kind of experiment: co-IP; MEL cells lysed in RIPA, gently sonicated; 100 ug precleared extract with anti-Ctcf or anti-Smarca5 3 hrs at 4 C, then protein A/protein G overnight; washes up to 500 mM NaCl; immunoblot. (In general: A western blot detects proteins with antibodies after separation by electrophoresis.)

Experiment [2] concerns the target T2, CTCF (CCCTC-binding factor), human (human (endogenous in K562)) (UniProt P49711).
T2 sequence: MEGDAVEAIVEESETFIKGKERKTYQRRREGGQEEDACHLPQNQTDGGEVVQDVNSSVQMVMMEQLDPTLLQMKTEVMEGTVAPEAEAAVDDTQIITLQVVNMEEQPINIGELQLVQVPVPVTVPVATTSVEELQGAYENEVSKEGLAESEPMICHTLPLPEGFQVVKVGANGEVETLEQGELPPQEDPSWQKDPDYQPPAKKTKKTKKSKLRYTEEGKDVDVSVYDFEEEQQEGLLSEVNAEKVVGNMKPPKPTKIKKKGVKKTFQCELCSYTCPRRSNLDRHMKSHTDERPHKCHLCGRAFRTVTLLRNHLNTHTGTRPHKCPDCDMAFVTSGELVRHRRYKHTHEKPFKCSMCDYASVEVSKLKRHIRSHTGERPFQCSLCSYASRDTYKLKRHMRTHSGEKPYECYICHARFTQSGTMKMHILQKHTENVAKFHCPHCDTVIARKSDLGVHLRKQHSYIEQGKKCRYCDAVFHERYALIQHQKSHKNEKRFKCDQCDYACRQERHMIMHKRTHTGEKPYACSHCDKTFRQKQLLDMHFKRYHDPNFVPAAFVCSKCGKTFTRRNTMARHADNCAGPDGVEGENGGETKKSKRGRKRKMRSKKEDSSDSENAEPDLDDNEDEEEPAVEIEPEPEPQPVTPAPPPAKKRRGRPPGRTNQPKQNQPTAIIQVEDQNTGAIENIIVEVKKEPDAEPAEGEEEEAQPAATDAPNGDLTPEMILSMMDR
Briefly: co-IP; K562 cells lysed in RIPA, gently sonicated; 100 ug precleared extract with anti-Ctcf or anti-Smarca5 3 hrs at 4 C, then protein A/protein G overnight; washes up to 500 mM NaCl; immunoblot.

The target in experiment [3] is SMARCA5 (SNF2H), ISWI ATPase, human (human (endogenous in K562)) (UniProt O60264). The description is as above.
Experiment [4] deals with Smarca5 (Snf2h), ISWI ATPase, mouse (mouse (endogenous in MEL)) (UniProt Q91ZW3). Briefly: co-IP; MEL cells lysed in RIPA, gently sonicated; 100 ug precleared extract with anti-Ctcf or anti-Smarca5 3 hrs at 4 C, then protein A/protein G overnight; washes up to 500 mM NaCl; immunoblot.

Results are given in words; binding and its absence hold for the method and conditions named. Binding seen in cells or lysates may run through a third protein. Some entries that bind do so weakly or less than the wild type.

Regarding “Smarca5 (Snf2h), ISWI ATPase, mouse (from UniProt Q91ZW3 1-1051)”, the binding result in experiment [1] is given as “binds”.
In the case of “SMARCA5 (SNF2H), ISWI ATPase, human (from UniProt O60264 1-1052)”, the binding entry in experiment [2] is recorded as “binds”.

B1: CTCF (CCCTC-binding factor), human (protein, UniProt P49711 1-727)
chain: T2 sequence
Consider B1, for which the binding entry in experiment [3] is on record as “binds”.

B2: Ctcf (CCCTC-binding factor), mouse (protein, UniProt Q61164 1-736)
chain: T1 sequence
B2: the binding entry in experiment [4] is given as “binds”.
